We go through one substance from US20060257358A1, “Suspension of calcium phosphate particulates for local delivery of therapeutic agents” (DePuy Products, Inc., priority 2005, published 2006).

The data set is described as follows: Osteocalcin adsorption, elution and dissolution test on biomimetic apatite (HPLC). As to conditions: 20 μg protein. On the procedure:
The test with osteocalcin was conducted by incubating biomimetic apatite prepared on Ti6Al4V substrates with phosphate buffered saline (PBS) containing 0.1 mg/mL (bovine serum albumin) BSA. […] Eighty five percent of the original protein (20 μg) is adsorbed by biomimetic apatite crystals within 3 hours of test. An elution test was designed to further test the affinity of biomimetic apatite to osteocalcin in PBS containing 0.1 mg/mL BSA was measured (FIG. 6). Only ˜6% of the originally applied protein (20 μg) was eluted out from the biomimetic apatite crystals after 20 hours of incubation.

Take “osteocalcin: a bone tissue specific protein (YLYQWLGAPVPYPDPLEPRREVCELNPDCDELADHIGFQEAYRRFYGPV; UniProt P02818 52-100, looked up)”: for the setting “PBS with 0.1 mg/mL BSA, after 20 hours of incubation”, the “originally applied protein eluted out from the biomimetic apatite crystals” value is approximately 6%. For the same substance, under “minerals fully dissolved in acid”, the “protein recovered after dissolution of the minerals in acid” value is on record as approximately 64%.
